# Measurements published in article PMC8384837.
# Changes are numbered by the printed parent chain. This is one part of the list. For some of these results: At the low end of the ranking the order means little. For some of these results: The exact form of the protein is not confirmed.
# Columns and labels:
# Settings in all cases: yeast three-hybrid, YBZ-1, SC-Leu-His + 0.5 mM 3-AT, 4 days
# [1] = target: T1, PUM1 PUF domain R2-VFQ R3-THE R4-TFR N899V + Y900F + C935T + R936H + Q939E + N971T + H972F + Q975R (UniProt Q14671)
# T1 sequence: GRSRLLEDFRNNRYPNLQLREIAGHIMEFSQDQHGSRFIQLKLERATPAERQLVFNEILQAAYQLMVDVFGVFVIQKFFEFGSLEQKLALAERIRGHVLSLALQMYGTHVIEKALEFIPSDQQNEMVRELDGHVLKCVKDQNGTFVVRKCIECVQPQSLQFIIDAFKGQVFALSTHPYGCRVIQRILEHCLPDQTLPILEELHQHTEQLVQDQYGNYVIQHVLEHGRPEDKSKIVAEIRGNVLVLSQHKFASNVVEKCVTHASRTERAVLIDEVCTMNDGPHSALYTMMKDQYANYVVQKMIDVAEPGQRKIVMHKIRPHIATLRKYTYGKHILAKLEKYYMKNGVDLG
# [2] = target: T2, PUM1 PUF domain R3-THE R4-TFR C935T + R936H + Q939E + N971T + H972F + Q975R (UniProt Q14671)
# T2 sequence: T1 sequence with V72N, F73Y
# [3] = target: T3, PUM1 PUF domain R5-PHQ R6-SWD C1007P + R1008H + N1043S + Y1044W + Q1047D (UniProt Q14671)
# T3 sequence: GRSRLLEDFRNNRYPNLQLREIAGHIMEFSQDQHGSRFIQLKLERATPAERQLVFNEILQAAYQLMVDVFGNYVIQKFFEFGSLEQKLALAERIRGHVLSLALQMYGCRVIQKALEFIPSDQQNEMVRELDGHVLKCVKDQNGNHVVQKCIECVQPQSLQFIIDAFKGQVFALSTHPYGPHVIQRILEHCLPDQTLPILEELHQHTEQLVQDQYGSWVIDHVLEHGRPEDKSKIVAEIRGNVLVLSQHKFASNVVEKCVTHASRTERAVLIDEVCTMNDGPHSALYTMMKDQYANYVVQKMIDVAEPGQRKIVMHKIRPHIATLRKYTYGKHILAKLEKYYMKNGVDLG
# [4] = target: T4, PUM1 PUF domain R3-THE R4-TFR R7-NPG C935T + R936H + Q939E + N971T + H972F + Q975R + S1079N + N1080P + E1083G (Homo sapiens) (UniProt Q14671)
# T4 sequence: T1 sequence with V72N, F73Y, S252N, N253P, E256G
# [5] = target: T5, PUM1 PUF domain R6-SWD R7-NPG N1043S + Y1044W + Q1047D + S1079N + N1080P + E1083G (Homo sapiens) (UniProt Q14671)
# T5 sequence: T3 sequence with P180C, H181R, S252N, N253P, E256G
# [6] = target: T6, PUM1 PUF domain R3-THE R4-TFR R7-NPG C935T + R936H + Q939E + N971T + H972F + Q975R + S1079N + N1080P + E1083G (UniProt Q14671)
# T6 sequence: T1 sequence with V72N, F73Y, S252N, N253P, E256G
# [7] = target: T7, PUM1 PUF domain R6-SWD R7-NPG N1043S + Y1044W + Q1047D + S1079N + N1080P + E1083G (UniProt Q14671)
# T7 sequence: T3 sequence with P180C, H181R, S252N, N253P, E256G
Sequence,binding signal (log2 enrichment (interaction score)) [1],binding signal (log2 enrichment (interaction score)) [2],binding signal (log2 enrichment (interaction score)) [3],binding signal (log2 enrichment (interaction score)) [4],binding signal (log2 enrichment (interaction score)) [5],binding signal (log2 enrichment (interaction score)) [6],binding signal (log2 enrichment (interaction score)) [7]
GGCUAGAACUAGUGGAUCCCCCGGCGCCCGGCGGCUCGAGCCCGGGUAAGUGUACAAAGUCUGCAUGCCGCCGGGCGCCAUGCCUGCAGGUCGACUCUAGAAAACAUG,-2.63,-7.35,-8.17,–,–,–,–
GGCUAGAACUAGUGGAUCCCCCGGCGCCCGGCGGCUCGAGCCCGGGUAAGUCGACAAAGUCUGCAUGCCGCCGGGCGCCAUGCCUGCAGGUCGACUCUAGAAAACAUG,-3.89,-7.47,-7.24,-1.81,–,–,–
GGCUAGAACUAGUGGAUCCCCCGGCGCCCGGCGGCUCGAGCCCGGGUAAGUGGCCGAAGUCUGCAUGCCGCCGGGCGCCAUGCCUGCAGGUCGACUCUAGAAAACAUG,-5.66,-6.1,< -7.83,–,–,–,–
GGCUAGAACUAGUGGAUCCCCCGGCGCCCGGCGGCUCGAGCCCGGGUAAGUUUACCUCGUCUGCAUGCCGCCGGGCGCCAUGCCUGCAGGUCGACUCUAGAAAACAUG,-5.93,-7.87,–,< -0.86,-1.5,–,–
GGCUAGAACUAGUGGAUCCCCCGGCGCCCGGCGGCUCGAGCCCGGGUAAGUAGUCAUGGUCUGCAUGCCGCCGGGCGCCAUGCCUGCAGGUCGACUCUAGAAAACAUG,-5.59,-6.57,< -6.51,–,–,–,–
GGCUAGAACUAGUGGAUCCCCCGGCGCCCGGCGGCUCGAGCCCGGGUAAGCUUGCGUCGUCUGCAUGCCGCCGGGCGCCAUGCCUGCAGGUCGACUCUAGAAAACAUG,-4.83,-5.56,–,-1.92,–,–,–
GGCUAGAACUAGUGGAUCCCCCGGCGCCCGGCGGCUCGAGCCCGGGUAAGUGUAGGGGGUCUGCAUGCCGCCGGGCGCCAUGCCUGCAGGUCGACUCUAGAAAACAUG,-5.32,-6.63,–,–,–,-2.24,–
GGCUAGAACUAGUGGAUCCCCCGGCGCCCGGCGGCUCGAGCCCGGGUAAGAGUUAUAAGUCUGCAUGCCGCCGGGCGCCAUGCCUGCAGGUCGACUCUAGAAAACAUG,-5.65,-6.79,–,–,-0.32,-2.75,–
GGCUAGAACUAGUGGAUCCCCCGGCGCCCGGCGGCUCGAGCCCGGGUAAGAUUACGGAGUCUGCAUGCCGCCGGGCGCCAUGCCUGCAGGUCGACUCUAGAAAACAUG,-5.71,-5.95,–,-1.03,–,–,–
GGCUAGAACUAGUGGAUCCCCCGGCGCCCGGCGGCUCGAGCCCGGGUAAGAGGAGGGAGUCUGCAUGCCGCCGGGCGCCAUGCCUGCAGGUCGACUCUAGAAAACAUG,-5.35,-7.06,-7.1,–,–,–,–
GGCUAGAACUAGUGGAUCCCCCGGCGCCCGGCGGCUCGAGCCCGGGUAAGUUGAAGGAGUCUGCAUGCCGCCGGGCGCCAUGCCUGCAGGUCGACUCUAGAAAACAUG,-5.63,-7.27,-8.7,-1.6,–,–,–
GGCUAGAACUAGUGGAUCCCCCGGCGCCCGGCGGCUCGAGCCCGGGUAAGAGGAUGCCGUCUGCAUGCCGCCGGGCGCCAUGCCUGCAGGUCGACUCUAGAAAACAUG,-5.9,-7.57,< -8.65,< -1.3,–,–,–
GGCUAGAACUAGUGGAUCCCCCGGCGCCCGGCGGCUCGAGCCCGGGUAAGUCAAGAAAGUCUGCAUGCCGCCGGGCGCCAUGCCUGCAGGUCGACUCUAGAAAACAUG,-5.36,-6.77,< -7.57,< -1.96,–,–,-2.8
GGCUAGAACUAGUGGAUCCCCCGGCGCCCGGCGGCUCGAGCCCGGGUAAGUGGAGCGCGUCUGCAUGCCGCCGGGCGCCAUGCCUGCAGGUCGACUCUAGAAAACAUG,-5.73,-7.32,< -7.09,–,–,–,–

# Two consecutive records out of the list so far:
Sequence,binding signal (log2 enrichment (interaction score)) [1],binding signal (log2 enrichment (interaction score)) [2],binding signal (log2 enrichment (interaction score)) [3],binding signal (log2 enrichment (interaction score)) [4],binding signal (log2 enrichment (interaction score)) [5],binding signal (log2 enrichment (interaction score)) [6],binding signal (log2 enrichment (interaction score)) [7]
GGCUAGAACUAGUGGAUCCCCCGGCGCCCGGCGGCUCGAGCCCGGGUAAGAGUUAUAAGUCUGCAUGCCGCCGGGCGCCAUGCCUGCAGGUCGACUCUAGAAAACAUG,-5.65,-6.79,–,–,-0.32,-2.75,–
GGCUAGAACUAGUGGAUCCCCCGGCGCCCGGCGGCUCGAGCCCGGGUAAGAUUACGGAGUCUGCAUGCCGCCGGGCGCCAUGCCUGCAGGUCGACUCUAGAAAACAUG,-5.71,-5.95,–,-1.03,–,–,–
